# Assay results taken from the supplement of paper PMC4683952.
# The list shows a part of the results. How the calls were made is not given here. Single values are uncertain here, since repeats match poorly.
# System: Lgr5 (MarsCy1-Lgr5-EGFP, U2OS)
# Assay: cell-surface Lgr5 expression (SCi1 fluorescence, background-subtracted) relative to WT DMSO (fold of DMSO control); higher = more Lgr5 at the plasma membrane
# Details: U2OS MarsCy1-Lgr5-EGFP stable; treatment time: overnight; library: Kinase Gold; 20 µM
# Procedure: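 U2OS cells stably expressing MarsCy1-Lgr5-EGFP in 384-well plates were incubated overnight with single-dose compounds. Cell-surface Lgr5 was stained with SCi1 and scanned at 700 nm on a LI-COR Odyssey. Intensity was background-subtracted (parental U2OS) and expressed relative to WT DMSO wells.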
row,SMILES,cell-surface Lgr5 expression
1,COc1ccc(N=Cc2c(O)n(-c3ccccc3)c(=O)[nH]c2=O)cc1,inactive: 0.629
2,O=C1C=Cc2ccccc2/C1=C\c1c(O)[nH]c(=S)[nH]c1=O,inactive: 0.948
